For at least one compound, name, drawing or mass did not settle the structure.
Test: LC-MS/MS recovery of ergothionine from the composition
Assay type: physicochemical
Settings: composition with 0.23 mg/g w/w ergothionine (1 mM), diluted 1:20 in water

SMILES: C[N+](C)(C)[C@@H](Cc1c[nH]c(=S)[nH]1)C(=O)[O-] [ergothionine]
- recovery of ergothionine from the composition: completely recoverable
